Source: the supplement of paper PMC10849652
Some of the results follow.

Protein sequences, listed by entry. Tags and fused reporters are not part of them. Lines headed by an entry give the natural chain unless they say otherwise; changes in a name come on top.
UniProt Q96NC0: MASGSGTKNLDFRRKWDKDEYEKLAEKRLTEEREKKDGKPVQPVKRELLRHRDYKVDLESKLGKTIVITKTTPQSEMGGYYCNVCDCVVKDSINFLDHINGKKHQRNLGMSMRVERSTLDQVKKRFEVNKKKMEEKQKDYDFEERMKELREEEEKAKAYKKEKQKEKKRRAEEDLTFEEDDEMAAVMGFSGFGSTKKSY
UniProt Q8IX07: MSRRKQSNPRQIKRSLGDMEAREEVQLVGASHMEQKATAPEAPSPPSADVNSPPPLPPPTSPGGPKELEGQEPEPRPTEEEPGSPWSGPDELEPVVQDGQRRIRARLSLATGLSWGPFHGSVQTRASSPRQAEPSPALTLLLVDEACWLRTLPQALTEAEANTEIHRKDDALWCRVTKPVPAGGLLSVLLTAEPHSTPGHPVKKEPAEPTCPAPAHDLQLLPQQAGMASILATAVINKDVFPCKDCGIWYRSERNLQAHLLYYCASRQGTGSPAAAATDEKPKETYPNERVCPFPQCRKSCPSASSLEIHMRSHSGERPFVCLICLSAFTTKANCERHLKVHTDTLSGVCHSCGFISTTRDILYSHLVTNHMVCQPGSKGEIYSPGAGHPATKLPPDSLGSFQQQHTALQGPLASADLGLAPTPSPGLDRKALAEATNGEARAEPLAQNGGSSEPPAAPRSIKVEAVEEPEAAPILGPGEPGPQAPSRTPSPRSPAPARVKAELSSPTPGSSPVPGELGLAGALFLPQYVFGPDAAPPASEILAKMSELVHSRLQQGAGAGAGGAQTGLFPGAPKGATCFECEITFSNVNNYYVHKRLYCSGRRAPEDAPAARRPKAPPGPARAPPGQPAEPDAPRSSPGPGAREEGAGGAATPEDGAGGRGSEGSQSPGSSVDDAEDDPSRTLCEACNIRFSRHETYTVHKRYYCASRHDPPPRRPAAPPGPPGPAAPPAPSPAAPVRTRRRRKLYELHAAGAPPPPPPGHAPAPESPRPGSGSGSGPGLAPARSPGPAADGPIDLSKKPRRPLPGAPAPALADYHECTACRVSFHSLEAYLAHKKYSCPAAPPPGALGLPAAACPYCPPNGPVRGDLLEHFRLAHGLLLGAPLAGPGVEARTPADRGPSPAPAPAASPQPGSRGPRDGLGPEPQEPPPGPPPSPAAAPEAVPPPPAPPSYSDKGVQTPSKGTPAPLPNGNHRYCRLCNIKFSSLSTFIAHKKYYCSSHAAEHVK
UniProt Q6FIF0: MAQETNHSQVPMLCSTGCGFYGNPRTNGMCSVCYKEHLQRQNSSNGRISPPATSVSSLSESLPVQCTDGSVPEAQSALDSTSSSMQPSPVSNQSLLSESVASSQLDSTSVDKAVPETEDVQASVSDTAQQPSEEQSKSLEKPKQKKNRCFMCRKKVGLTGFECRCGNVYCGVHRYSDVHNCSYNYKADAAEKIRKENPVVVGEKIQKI
UniProt Q9UQR1: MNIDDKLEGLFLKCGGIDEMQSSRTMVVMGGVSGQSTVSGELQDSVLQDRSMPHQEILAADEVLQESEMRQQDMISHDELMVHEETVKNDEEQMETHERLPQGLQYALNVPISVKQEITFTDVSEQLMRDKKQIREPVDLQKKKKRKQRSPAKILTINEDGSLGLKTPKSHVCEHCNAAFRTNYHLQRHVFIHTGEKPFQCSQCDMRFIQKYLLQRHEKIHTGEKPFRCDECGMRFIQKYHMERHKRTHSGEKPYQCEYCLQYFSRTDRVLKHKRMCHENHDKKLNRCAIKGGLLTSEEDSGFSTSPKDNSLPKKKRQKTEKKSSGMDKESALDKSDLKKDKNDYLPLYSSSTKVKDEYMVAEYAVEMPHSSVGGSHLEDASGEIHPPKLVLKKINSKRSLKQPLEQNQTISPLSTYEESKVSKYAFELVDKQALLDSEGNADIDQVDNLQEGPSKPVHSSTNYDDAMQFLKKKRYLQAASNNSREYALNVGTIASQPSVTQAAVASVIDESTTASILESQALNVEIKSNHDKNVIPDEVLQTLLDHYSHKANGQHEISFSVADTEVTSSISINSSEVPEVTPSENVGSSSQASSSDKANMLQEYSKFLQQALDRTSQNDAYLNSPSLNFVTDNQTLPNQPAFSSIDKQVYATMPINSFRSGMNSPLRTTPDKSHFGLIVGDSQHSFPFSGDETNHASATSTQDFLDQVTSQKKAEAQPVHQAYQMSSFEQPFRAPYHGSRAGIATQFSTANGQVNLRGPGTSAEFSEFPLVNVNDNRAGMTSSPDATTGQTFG
UniProt Q9NQW7: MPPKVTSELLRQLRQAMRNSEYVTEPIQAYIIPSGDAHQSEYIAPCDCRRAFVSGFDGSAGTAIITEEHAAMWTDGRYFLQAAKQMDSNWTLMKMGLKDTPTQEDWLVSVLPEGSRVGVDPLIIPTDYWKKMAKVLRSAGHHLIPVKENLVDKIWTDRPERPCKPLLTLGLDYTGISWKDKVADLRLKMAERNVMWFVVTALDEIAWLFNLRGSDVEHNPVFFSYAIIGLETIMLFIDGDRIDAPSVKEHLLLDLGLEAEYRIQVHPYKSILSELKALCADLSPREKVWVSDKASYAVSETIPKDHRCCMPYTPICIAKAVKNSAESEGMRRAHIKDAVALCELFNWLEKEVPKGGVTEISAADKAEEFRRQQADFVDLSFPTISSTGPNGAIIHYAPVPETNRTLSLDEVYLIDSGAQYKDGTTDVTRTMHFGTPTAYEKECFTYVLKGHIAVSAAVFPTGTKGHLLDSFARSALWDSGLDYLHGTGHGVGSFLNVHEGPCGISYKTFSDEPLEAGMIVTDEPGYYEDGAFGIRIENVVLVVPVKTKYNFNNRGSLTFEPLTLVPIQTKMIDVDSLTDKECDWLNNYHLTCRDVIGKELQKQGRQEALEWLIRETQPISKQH
UniProt Q9Y548: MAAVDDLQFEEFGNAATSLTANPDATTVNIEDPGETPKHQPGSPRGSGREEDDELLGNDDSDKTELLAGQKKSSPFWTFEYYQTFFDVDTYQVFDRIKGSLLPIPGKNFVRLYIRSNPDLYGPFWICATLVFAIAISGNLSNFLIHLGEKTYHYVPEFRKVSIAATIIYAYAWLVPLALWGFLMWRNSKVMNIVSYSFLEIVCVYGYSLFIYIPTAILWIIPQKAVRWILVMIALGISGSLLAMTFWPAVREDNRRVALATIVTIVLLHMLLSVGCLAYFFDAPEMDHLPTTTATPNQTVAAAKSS
UniProt O43670: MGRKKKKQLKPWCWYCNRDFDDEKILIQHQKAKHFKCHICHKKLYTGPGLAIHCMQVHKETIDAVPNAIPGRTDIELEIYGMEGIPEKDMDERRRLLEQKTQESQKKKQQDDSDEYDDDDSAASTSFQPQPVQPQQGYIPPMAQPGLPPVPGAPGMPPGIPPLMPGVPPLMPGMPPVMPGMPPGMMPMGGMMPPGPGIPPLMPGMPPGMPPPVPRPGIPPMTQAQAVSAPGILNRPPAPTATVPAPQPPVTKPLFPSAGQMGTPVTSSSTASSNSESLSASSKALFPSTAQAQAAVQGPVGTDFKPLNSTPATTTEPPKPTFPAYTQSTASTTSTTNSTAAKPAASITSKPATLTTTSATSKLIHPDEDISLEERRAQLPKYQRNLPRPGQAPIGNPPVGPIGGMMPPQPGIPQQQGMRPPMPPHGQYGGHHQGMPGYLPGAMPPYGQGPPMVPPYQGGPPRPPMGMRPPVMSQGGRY
UniProt Q8IWT0: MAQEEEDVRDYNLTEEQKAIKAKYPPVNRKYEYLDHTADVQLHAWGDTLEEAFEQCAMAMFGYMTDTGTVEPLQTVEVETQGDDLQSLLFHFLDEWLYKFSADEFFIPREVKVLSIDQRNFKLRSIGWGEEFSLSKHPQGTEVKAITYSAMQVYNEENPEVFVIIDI
UniProt Q7Z7L7: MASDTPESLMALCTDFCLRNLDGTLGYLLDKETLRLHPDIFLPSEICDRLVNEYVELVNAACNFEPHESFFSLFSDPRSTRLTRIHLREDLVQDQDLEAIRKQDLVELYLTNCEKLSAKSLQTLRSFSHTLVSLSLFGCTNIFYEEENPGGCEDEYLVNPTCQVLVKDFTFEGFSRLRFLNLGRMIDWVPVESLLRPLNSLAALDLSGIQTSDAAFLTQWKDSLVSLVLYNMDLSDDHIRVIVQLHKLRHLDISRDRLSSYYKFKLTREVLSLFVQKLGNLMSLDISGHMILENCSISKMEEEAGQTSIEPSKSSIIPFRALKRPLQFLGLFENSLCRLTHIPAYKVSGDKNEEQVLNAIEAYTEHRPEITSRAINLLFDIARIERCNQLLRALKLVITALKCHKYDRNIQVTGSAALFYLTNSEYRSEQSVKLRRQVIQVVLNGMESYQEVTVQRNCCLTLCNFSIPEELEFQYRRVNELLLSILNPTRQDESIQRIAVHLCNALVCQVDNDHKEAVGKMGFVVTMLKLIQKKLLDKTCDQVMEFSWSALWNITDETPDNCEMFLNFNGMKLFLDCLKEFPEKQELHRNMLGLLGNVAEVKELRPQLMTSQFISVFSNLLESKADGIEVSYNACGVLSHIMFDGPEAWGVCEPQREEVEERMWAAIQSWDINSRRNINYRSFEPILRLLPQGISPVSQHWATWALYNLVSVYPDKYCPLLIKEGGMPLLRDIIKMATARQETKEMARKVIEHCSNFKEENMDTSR

What was measured:
Test in all cases: log2 fold change, soluble protein after heating vs DMSO (PISA); higher = thermal stabilisation; K562 cells, 10 uM, 30 min; active = over 0.2 and 3.5 SD of the protein, either way, in both replicates (recomputed)
[1] = compound: C1=CC=C(C=C1)[C@H](COC2=CC3=C(C=C2)NC(=O)N3)NC(=O)C4=CC=CN(C4=O)CC5=CC(=C(C=C5)F)F
Outline: (§1)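 Soluble protein was defined as the supernatant after 21,000xg for 90 min. It came from K562 cells at 2×10^6 cells/mL given 10 μM compound for 30 min, heated in aliquots for 3 min across 48°C-58°C, pooled, and extracted in PBS with 0.5% NP-40 at 4°C, and was quantified by TMTpro 16plex LC-MS/MS with equalised channel sums. Thermal stability against control samples, from duplicates, is reported as log2 fold change.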

[2] = compound: CC1=C(SC2=C1C(=N[C@H](C3=NN=C(N32)C)CC(=O)N)C4=CC=C(C=C4)Cl)C
Outline: as §1

[3] = compound: CC1=C2C(=CC=C1)N=C(N(C2=O)C3=CC=CC=C3C)CN4C=NC5=C(N=CN=C54)N
Outline: as §1

[4] = compound: Cc1sc2c(c1C)C(c1ccc(Cl)cc1)=N[C@@H](CC(=O)OC(C)(C)C)c1nnc(C)n1-2
Outline: as §1

[5] = compound: c1ccc([C@@H]2C[C@H]2NC2CCNCC2)cc1
Outline: as §1

Measured: log2 fold change

ZMAT2 (UniProt Q96NC0)
inactive: [1] 0.029 | [2] -0.025 | [3] -0.009 | [4] -0.042 | [5] -0.016

ZFPM1 (UniProt Q8IX07)
inactive: [1] -0.196 | [2] 0.093 | [3] 0.017 | [4] -0.198 | [5] 0.103

ZFAND6 (UniProt Q6FIF0)
inactive: [1] 0 | [2] -0.015 | [3] 0.042 | [4] -0.143 | [5] 0.004

ZNF148 (UniProt Q9UQR1)
inactive: [1] 0.103 | [2] 0.015 | [4] -0.044 | [5] -0.115

XPNPEP1 isoform 3 (UniProt Q9NQW7)
inactive: [1] -0.017 | [2] 0.081 | [3] 0.021 | [4] 0.002 | [5] -0.029

YIPF1 (UniProt Q9Y548)
inactive: [1] -0.292 | [2] 0.053 | [3] -0.01 | [4] 0.123 | [5] 0.038

ZNF207 isoform 2 (UniProt O43670)
inactive: [1] -0.066 | [2] 0.106 | [3] -0.14 | [4] 0.004 | [5] 0.152

ZBTB8OS (UniProt Q8IWT0)
inactive: [1] -0.08 | [2] 0.037 | [3] 0.105 | [4] 0.118 | [5] 0.024

ZER1 (UniProt Q7Z7L7)
inactive: [1] 0 | [2] -0.007 | [3] 0.018 | [4] -0.064 | [5] -0.03
